Assay results from the supplement of paper PMC10849652.
The other results are listed elsewhere or left out.

By UniProt entry, the sequences of proteins in these tests, tags left out. Where a name states a change or a piece, a line headed by the entry shows the natural chain unless it says otherwise.
UniProt P05091: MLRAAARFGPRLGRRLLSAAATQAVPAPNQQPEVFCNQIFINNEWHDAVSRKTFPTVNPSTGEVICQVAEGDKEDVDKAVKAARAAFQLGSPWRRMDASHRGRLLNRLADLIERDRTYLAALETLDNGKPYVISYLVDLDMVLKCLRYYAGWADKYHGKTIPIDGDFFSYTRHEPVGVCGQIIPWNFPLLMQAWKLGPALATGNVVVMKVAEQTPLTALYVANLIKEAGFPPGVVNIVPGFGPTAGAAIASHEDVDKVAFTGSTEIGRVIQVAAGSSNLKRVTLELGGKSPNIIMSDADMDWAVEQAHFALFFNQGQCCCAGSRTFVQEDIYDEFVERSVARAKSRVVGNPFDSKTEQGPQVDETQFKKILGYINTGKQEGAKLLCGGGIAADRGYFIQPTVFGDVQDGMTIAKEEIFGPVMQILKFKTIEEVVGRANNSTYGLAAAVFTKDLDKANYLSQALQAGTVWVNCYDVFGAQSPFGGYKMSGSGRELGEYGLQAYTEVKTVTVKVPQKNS
UniProt Q92688: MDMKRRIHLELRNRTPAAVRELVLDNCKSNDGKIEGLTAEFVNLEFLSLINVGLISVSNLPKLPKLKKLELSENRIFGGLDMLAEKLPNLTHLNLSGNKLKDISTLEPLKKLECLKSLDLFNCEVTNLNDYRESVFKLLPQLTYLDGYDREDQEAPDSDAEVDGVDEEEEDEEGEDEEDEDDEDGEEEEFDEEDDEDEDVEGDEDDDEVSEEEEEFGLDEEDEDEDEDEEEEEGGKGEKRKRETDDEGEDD
UniProt Q9Y4X0: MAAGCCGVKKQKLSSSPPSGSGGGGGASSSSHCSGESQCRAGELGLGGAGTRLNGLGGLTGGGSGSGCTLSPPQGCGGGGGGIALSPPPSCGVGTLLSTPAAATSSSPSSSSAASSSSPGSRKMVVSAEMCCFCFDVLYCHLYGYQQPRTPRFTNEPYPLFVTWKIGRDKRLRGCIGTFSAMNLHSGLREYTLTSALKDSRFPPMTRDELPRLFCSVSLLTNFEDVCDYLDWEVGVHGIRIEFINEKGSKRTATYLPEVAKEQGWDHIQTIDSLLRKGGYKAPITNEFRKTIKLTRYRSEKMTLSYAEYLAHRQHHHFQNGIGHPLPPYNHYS
UniProt Q9NP73: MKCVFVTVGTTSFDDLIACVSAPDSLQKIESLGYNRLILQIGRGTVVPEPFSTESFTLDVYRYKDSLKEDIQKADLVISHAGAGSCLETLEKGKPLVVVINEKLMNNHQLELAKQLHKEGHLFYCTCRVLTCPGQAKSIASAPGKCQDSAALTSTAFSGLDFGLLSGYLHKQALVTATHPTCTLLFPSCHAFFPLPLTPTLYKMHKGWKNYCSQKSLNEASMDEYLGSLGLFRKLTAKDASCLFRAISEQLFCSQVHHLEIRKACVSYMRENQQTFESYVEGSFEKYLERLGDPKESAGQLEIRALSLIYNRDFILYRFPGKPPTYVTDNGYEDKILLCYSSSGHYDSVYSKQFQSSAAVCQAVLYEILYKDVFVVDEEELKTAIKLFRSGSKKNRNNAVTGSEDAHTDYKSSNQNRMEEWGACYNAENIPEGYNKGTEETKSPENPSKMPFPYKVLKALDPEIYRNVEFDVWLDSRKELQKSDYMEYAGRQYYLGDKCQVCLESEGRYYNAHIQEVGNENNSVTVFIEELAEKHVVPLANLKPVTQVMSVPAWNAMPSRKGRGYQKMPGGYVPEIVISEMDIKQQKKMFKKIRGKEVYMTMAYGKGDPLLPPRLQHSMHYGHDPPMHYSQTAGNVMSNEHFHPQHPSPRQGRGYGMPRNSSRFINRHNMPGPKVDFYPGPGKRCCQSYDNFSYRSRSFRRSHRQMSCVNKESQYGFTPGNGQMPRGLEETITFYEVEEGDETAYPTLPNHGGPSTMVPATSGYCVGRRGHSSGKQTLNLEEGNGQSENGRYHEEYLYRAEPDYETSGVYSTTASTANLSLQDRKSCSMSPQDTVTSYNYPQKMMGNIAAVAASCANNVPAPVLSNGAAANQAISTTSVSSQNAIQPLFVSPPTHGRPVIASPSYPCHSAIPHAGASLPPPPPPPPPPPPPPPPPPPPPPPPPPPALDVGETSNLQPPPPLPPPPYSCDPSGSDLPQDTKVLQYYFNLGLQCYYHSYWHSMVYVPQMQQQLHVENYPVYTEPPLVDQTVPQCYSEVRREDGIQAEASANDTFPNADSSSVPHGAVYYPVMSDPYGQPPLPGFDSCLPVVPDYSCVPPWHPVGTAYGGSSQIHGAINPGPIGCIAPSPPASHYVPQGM
UniProt P15144: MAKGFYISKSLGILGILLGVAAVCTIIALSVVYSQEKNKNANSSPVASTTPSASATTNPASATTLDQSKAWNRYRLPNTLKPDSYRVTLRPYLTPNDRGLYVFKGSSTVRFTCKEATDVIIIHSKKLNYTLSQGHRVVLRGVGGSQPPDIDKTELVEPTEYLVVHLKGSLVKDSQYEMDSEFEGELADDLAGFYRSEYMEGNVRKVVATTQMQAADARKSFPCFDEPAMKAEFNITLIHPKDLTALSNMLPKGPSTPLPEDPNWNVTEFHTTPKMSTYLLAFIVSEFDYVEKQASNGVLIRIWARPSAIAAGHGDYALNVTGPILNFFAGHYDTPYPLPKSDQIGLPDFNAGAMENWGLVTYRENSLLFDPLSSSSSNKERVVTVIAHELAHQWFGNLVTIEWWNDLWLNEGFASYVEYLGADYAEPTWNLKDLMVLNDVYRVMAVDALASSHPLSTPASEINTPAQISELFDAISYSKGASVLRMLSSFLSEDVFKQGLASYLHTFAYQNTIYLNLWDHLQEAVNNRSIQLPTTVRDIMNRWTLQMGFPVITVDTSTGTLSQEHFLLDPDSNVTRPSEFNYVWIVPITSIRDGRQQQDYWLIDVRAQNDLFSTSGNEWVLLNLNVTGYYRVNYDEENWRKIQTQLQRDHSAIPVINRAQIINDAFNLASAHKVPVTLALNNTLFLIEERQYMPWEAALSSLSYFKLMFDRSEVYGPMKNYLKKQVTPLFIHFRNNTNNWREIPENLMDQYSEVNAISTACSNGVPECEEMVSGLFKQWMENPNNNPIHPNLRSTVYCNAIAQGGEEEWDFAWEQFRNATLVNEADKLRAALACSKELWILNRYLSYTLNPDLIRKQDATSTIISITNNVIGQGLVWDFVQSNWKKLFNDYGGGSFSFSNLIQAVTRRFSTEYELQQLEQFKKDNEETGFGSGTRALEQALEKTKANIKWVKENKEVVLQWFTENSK
UniProt Q9BT22: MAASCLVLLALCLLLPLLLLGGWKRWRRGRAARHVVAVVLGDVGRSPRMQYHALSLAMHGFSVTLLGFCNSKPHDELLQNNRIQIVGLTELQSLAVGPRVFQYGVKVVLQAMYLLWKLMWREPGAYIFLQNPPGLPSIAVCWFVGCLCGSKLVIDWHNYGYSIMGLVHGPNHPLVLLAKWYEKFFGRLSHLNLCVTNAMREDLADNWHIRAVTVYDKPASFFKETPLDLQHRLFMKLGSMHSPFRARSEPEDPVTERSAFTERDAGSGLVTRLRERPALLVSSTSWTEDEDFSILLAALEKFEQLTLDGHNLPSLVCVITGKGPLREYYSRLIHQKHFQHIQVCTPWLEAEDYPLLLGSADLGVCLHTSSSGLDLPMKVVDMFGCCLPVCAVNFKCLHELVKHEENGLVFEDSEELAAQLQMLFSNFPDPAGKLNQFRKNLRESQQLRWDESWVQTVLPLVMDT
UniProt Q9Y2T2: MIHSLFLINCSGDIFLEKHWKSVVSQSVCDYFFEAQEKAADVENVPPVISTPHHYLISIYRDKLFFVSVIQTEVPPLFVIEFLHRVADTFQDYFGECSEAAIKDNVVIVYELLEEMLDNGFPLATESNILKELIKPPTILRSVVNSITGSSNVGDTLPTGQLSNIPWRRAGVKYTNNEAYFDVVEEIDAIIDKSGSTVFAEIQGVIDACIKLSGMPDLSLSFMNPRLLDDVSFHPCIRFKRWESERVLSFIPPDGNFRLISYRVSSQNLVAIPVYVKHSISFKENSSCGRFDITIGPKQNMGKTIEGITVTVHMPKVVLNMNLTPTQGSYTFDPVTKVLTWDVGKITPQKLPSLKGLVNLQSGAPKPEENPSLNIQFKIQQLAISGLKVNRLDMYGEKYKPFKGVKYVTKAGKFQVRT
UniProt Q9NW15: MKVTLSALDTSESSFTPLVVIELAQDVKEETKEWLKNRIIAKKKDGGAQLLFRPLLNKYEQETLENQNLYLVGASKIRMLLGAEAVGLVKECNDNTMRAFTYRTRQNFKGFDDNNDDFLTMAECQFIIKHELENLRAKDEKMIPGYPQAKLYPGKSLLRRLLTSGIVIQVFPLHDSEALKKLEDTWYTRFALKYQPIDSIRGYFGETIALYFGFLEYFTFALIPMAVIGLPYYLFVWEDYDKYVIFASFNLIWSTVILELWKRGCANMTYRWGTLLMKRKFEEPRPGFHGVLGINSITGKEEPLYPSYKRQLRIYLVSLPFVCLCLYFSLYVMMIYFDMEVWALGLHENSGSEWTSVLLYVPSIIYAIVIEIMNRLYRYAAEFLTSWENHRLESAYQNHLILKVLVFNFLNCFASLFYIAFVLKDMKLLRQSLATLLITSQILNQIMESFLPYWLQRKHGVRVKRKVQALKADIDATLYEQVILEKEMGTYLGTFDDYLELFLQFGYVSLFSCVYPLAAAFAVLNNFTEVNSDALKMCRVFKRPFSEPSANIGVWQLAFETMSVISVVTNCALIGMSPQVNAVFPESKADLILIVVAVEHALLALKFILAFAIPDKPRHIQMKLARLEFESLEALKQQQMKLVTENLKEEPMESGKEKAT
UniProt P27216: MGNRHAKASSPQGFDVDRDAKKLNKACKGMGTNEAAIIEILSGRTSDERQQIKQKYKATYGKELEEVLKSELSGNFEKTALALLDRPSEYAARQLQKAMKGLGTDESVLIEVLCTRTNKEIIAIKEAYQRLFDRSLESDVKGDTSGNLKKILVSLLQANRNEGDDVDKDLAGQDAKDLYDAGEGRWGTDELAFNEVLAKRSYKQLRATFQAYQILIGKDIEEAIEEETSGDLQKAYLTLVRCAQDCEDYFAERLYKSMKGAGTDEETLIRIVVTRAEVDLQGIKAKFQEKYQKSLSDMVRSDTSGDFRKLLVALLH
UniProt Q9Y6B7: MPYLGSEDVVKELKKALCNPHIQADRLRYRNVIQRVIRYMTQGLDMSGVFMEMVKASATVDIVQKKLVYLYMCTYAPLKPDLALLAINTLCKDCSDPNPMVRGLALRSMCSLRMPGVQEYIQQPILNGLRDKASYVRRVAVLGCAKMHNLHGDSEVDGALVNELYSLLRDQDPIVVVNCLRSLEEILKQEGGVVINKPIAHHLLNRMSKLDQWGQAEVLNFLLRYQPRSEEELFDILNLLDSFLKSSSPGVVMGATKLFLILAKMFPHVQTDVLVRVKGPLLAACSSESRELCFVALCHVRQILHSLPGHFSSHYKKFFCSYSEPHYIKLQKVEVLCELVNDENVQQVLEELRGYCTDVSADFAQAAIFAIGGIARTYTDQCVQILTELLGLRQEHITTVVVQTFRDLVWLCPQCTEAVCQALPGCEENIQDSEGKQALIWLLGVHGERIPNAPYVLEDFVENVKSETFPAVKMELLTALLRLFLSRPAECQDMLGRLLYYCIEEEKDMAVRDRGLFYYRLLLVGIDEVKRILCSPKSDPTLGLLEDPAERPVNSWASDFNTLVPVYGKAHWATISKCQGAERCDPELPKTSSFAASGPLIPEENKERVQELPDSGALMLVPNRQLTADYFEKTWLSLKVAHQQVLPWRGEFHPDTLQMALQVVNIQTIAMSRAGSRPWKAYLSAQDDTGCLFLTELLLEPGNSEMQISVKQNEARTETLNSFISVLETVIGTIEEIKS
UniProt Q8IV38: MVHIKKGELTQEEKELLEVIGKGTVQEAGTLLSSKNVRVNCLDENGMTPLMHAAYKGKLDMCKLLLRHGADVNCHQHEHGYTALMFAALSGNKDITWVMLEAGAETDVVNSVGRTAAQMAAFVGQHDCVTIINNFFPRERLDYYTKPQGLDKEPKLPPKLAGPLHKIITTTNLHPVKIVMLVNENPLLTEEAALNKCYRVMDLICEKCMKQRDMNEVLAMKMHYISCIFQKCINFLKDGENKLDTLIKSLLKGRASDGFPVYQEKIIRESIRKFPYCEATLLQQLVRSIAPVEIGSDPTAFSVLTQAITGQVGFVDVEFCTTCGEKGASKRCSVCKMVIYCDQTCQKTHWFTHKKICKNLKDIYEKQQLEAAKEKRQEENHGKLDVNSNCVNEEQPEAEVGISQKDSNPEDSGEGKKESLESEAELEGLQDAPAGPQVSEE
UniProt P53680: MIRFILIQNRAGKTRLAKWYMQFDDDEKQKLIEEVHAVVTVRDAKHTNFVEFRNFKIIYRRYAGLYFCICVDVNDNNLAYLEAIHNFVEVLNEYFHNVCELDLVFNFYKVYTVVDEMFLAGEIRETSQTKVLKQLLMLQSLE

How the values were obtained:
Assay in all cases: log2 fold change, soluble protein after heating vs DMSO (PISA); higher = thermal stabilisation; K562 lysate, 10 uM; active = over 0.2 and 3.5 SD of the protein, either way, in both replicates (recomputed)
[1] = compound: C=CC(=O)N1CCC[C@@H](n2nc(-c3ccc(Oc4ccccc4)cc3)c3c(N)ncnc32)C1 [ibrutinib]
Procedure, shortened: (§1)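 To prepare the extract, K562 pellets were dounce-homogenised in PBS pH 7.4 with 1 mM MgCl2, giving crude material at 1 mg/mL protein. This was treated with 10 μM compound for 30 min, then heated in aliquots for 3 min over 48°C-58°C before pooling and addition of NP-40 to 0.5% at 4°C. Centrifugation at 21,000xg for 90 min left soluble protein in the supernatant, which TMTpro 16plex LC-MS/MS quantified with equalised channel sums. Results are log-two fold changes in thermal stability compared with solvent controls, from duplicates.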

[2] = compound: CC(=O)c1cnc2ccc(-c3cc(Cl)c(O)c(Cl)c3)nc2c1N[C@H]1CC[C@H](CN(C)C)CC1
Procedure, shortened: as §1

[3] = compound: CC(C)(C)Cn1c(N)nc2ccc(-c3[nH]c(C(C)(C)C)nc3-c3ccc(F)cc3)nc21 [ralimetinib]
Procedure, shortened: as §1

[4] = compound: CC(C)(O)CC(=O)NCCn1ccc2ncnc(Nc3ccc(Oc4cccc(C(F)(F)F)c4)c(Cl)c3)c21
Procedure, shortened: as §1

[5] = compound: CC(C)C1=C2N=C(C=C(N2N=C1)NCC3=CC=CC=C3)NCCCCCCN
Procedure, shortened: as §1

[6] = compound: CC1=C(C(CC(=O)N1)C2=CC=C(C=C2)C(F)(F)F)C(=O)NC3=C(C=C4C(=C3)C=NN4)F
Procedure, shortened: as §1

[7] = compound: CC1=C(C2=C(C=C1)C(=O)C3=CC=CC=C3N2CCCN)C
Procedure, shortened: as §1

[8] = compound: CC1=C(C=C(C=C1)NC(=O)C2=CC(=CC=C2)C(C)(C)C#N)NC3=CC4=C(C=C3)N=CN(C4=O)C
Procedure, shortened: as §1

[9] = compound: CC1=C(C=C(C=C1)NC(=O)C2=CC(=CC=C2)N(C)C)NC(=O)C3=CC=C(C=C3)O
Procedure, shortened: as §1

[10] = compound: CC1=CC=C(C=C1)SC2=C3C=C(SC3=CN=C2)C(=O)N
Procedure, shortened: as §1

Measured: log2 fold change

ANXA3 (UniProt P12429)
inactive: [1] 0.013 | [2] 0.018 | [3] 0.004 | [4] 0.031 | [5] 0.015 | [6] 0.023 | [7] 0.002 | [8] -0.015 | [9] 0.005 | [10] 0.017

ALDH2 (UniProt P05091)
inactive: [1] -0.001 | [2] 0.081 | [3] 0.002 | [4] -0.012 | [5] 0.199 | [6] -0.013 | [7] 0.014 | [8] -0.081 | [9] 0 | [10] 0.01

ANP32E (UniProt Q9BTT0)
inactive: [1] 0.03 | [2] -0.009 | [3] -0.015 | [4] 0.001 | [5] 0.022 | [6] -0.051 | [7] -0.072 | [8] 0.011 | [9] -0.065 | [10] 0.063

ANP32B (UniProt Q92688)
inactive: [1] 0.002 | [2] 0 | [3] 0.028 | [4] 0.013 | [5] -0.004 | [6] -0.006 | [7] -0.008 | [8] 0.005 | [9] -0.022 | [10] -0.023

AMMECR1 (UniProt Q9Y4X0)
inactive: [1] -0.021 | [2] -0.008 | [3] 0.006 | [4] -0.016 | [5] 0.014 | [6] 0.009 | [7] -0.01 | [8] -0.003 | [9] -0.027 | [10] -0.039

ALG13 (UniProt Q9NP73)
inactive: [1] 0.118 | [2] 0.037 | [3] 0.008 | [4] 0.026 | [5] 0.022 | [6] 0.065 | [7] -0.025 | [8] 0.063 | [9] 0.012 | [10] -0.001

ANPEP (UniProt P15144)
inactive: [1] 0.002 | [2] 0.056 | [3] 0.005 | [4] -0.012 | [5] -0.019 | [6] 0.104 | [7] -0.037 | [8] -0.017 | [9] -0.01 | [10] -0.007

ANKRD17 (UniProt O75179)
inactive: [1] 0.01 | [2] -0.003 | [3] 0.02 | [4] -0.012 | [5] -0.025 | [6] 0.017 | [7] 0 | [8] -0.152 | [9] 0.018 | [10] 0.007

ANP32E isoform 3 (UniProt Q9BTT0)
inactive: [1] -0.065

ALG1 (UniProt Q9BT22)
inactive: [1] -0.079 | [2] -0.093 | [3] -0.011 | [4] 0.064 | [5] 0.036 | [6] 0.042 | [7] 0.005 | [8] 0 | [9] -0.062 | [10] 0.008

ANAPC7 (UniProt Q9UJX3)
inactive: [1] -0.007 | [2] 0.002 | [3] 0.015 | [4] -0.009 | [5] 0.001 | [6] 0.01 | [7] 0.002 | [8] 0.022 | [9] 0.023 | [10] 0.01

AP2A2 isoform 2 (UniProt O94973)
inactive: [1] 0.077 | [2] 0.002 | [3] 0.03 | [4] -0.009 | [5] 0.018 | [6] -0.014 | [7] 0.017 | [8] 0.026 | [9] 0.001 | [10] -0.011

ALKBH5 (UniProt Q6P6C2)
inactive: [1] -0.009 | [2] -0.125 | [3] -0.183 | [4] -0.203 | [5] 0.005 | [6] -0.122 | [7] -0.07 | [8] 0.008 | [9] -0.021 | [10] -0.085

AP3M1 (UniProt Q9Y2T2)
inactive: [1] 0.002 | [2] -0.009 | [3] 0.01 | [4] -0.021 | [5] 0.022 | [6] 0.013 | [7] -0.006 | [8] 0.007 | [9] 0.011 | [10] 0.007

ALG10B (UniProt Q5I7T1)
inactive: [1] -0.067 | [2] -0.075 | [3] -0.021 | [4] 0.017 | [5] 0.004 | [6] -0.008 | [7] 0.056 | [8] -0.034 | [9] 0.011 | [10] -0.073

ALAD (UniProt P13716)
inactive: [1] 0.031 | [2] 0.011 | [3] -0.007 | [4] -0.066 | [5] -0.011 | [6] 0.011 | [7] -0.022 | [8] 0.025 | [9] 0 | [10] -0.023

2 records picked at random from the list so far:
AP2A2 isoform 2 (UniProt O94973)
inactive: [1] 0.077 | [2] 0.002 | [3] 0.03 | [4] -0.009 | [5] 0.018 | [6] -0.014 | [7] 0.017 | [8] 0.026 | [9] 0.001 | [10] -0.011

ALAD (UniProt P13716)
inactive: [1] 0.031 | [2] 0.011 | [3] -0.007 | [4] -0.066 | [5] -0.011 | [6] 0.011 | [7] -0.022 | [8] 0.025 | [9] 0 | [10] -0.023

Remaining list, next part

ALDH1A2 (UniProt O94788)
inactive: [1] 0.069 | [2] 0.031 | [3] -0.009 | [4] -0.037 | [5] 0.015 | [6] -0.016 | [7] 0.022 | [8] -0.017 | [9] -0.016 | [10] -0.015

AMDHD2 isoform 3 (UniProt Q9Y303)
inactive: [1] 0.032 | [2] 0.006 | [3] -0.059 | [4] -0.025 | [5] -0.011 | [6] 0.009 | [7] 0.013 | [8] -0.015 | [9] -0.017 | [10] -0.017

ALDH9A1 isoform 3 (UniProt P49189)
inactive: [1] -0.017 | [2] -0.01 | [3] 0.001 | [4] 0.039 | [5] -0.004 | [6] -0.032 | [7] 0.022 | [8] 0.022 | [9] 0.012 | [10] -0.01

ANO10 (UniProt Q9NW15)
inactive: [1] 0.051 | [2] 0.001 | [3] -0.031 | [4] -0.019 | [5] 0.014 | [6] -0.023 | [7] 0.032 | [8] 0.003 | [9] 0.015 | [10] 0.044

ANXA4 (UniProt P09525)
inactive: [1] -0.006 | [2] -0.024 | [3] -0.006 | [4] 0.012 | [5] -0.027 | [6] -0.019 | [7] 0.044 | [8] -0.025 | [9] 0.017 | [10] -0.007

ANXA5 (UniProt P08758)
inactive: [1] -0.009 | [2] -0.005 | [3] 0.014 | [4] 0.038 | [5] -0.026 | [6] 0.007 | [7] 0.032 | [8] -0.024 | [9] 0 | [10] 0.005

ANXA13 isoform 2 (UniProt P27216)
inactive: [1] 0.051 | [2] 0.092 | [3] 0.022 | [4] 0.169 | [5] -0.057 | [6] -0.034 | [7] 0.062 | [8] 0.053 | [9] -0.001 | [10] 0.06

AP4B1 (UniProt Q9Y6B7)
inactive: [1] -0.028 | [2] -0.048 | [3] -0.044 | [4] 0 | [5] 0.034 | [6] 0.003 | [7] -0.027 | [8] -0.02 | [9] -0.041 | [10] -0.041

ANKMY2 (UniProt Q8IV38)
inactive: [1] 0.01 | [2] 0.005 | [3] 0.01 | [4] -0.012 | [5] 0.002 | [6] -0.007 | [7] -0.003 | [8] 0.032 | [9] -0.002 | [10] 0.011

AP2S1 (UniProt P53680)
inactive: [1] 0.015 | [2] 0.034 | [3] 0.032 | [4] 0.087 | [5] -0.013 | [6] -0.04 | [7] 0.03 | [8] -0.003 | [9] -0.046 | [10] 0.004

ANKRD13A (UniProt Q8IZ07)
inactive: [1] -0.038 | [2] 0.018 | [3] 0.02 | [4] -0.016 | [5] -0.007 | [6] 0.05 | [7] -0.015 | [8] -0.005 | [9] 0.007 | [10] 0

ANK3 (UniProt Q12955)
inactive: [1] 0.034 | [2] -0.017 | [3] -0.058 | [4] -0.01 | [5] 0.004 | [6] -0.015 | [7] -0.049 | [8] 0.02 | [9] 0.089 | [10] -0.031

ANKZF1 (UniProt Q9H8Y5)
inactive: [1] 0.026 | [2] 0.018 | [3] 0.031 | [4] -0.024 | [5] -0.028 | [6] 0.021 | [7] -0.012 | [8] 0.013 | [9] -0.019 | [10] 0.008

ALDOC (UniProt P09972)
inactive: [1] 0.01 | [2] -0.021 | [3] 0.003 | [4] 0.051 | [5] -0.015 | [6] -0.01 | [7] 0.034 | [8] 0.006 | [9] -0.003 | [10] -0.027
